# Screen size: about 400,000 compounds; about 5,500 (1.4%) were called active. This list was built around the results that the source calls inconclusive (neither active nor inactive); the mix of calls is not that of the screen. Calls follow the shape of the dose curve; as a rule, active = well fitted cell-killing curve with a large enough effect; inconclusive = small, poorly fitted or top-dose-only effect, or effect the other way; inactive = flat fitted curve, though single readings scatter. Where the call is inconclusive, the potency comes from a doubtful curve fit.
# Test: qHTS assay for MDR1-selective chemotherapeutics: Primary screen using the parental adenocarcinoma cell KB-3-1; also: nearly all actives have a fitted effect of over 60% in size
# Details: KB-3-1 viability, CellTiter-Glo ATP luminescence, 72 h; activity change, negative = cytotoxic: at 46.1 µM (top of the series)
# Summary of the method: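 Cells are dispensed, compounds pinned in, plates held at 37 °C for 72 h, then CellTiter-Glo is added and luminescence read after 10 minutes. Cell line: parental KB-3-1 in phenol-red-free DMEM, 10% FBS.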
# % is scaled to controls: 0 for no effect and ±100 for the full control effect; potency is read from the fitted curve at half-maximal effect.
SMILES,Potency,"activity change, negative = cytotoxic"
O=C(NCc1ccccn1)Nc1ccc(Cl)cc1,"inconclusive: 0.0073 µM [cytotoxic, full curve]",
Cc1ccccc1C(=O)NC1CCN(C(=O)Nc2ccccc2Cl)CC1,,inactive: -0.447%
Cc1nc2scc(C)n2c(=O)c1S(=O)(=O)Nc1ccc(N2CCOCC2)c(Cl)c1,"inconclusive: 23.1 µM [cytotoxic, single point]",
COc1ccc(OC)c(NC(=O)CCCCCn2nnc3ccccc3c2=O)c1,,inactive: -13.3%
Cc1ccc(NC(=O)CN(C)S(=O)(=O)c2cccs2)cc1F,"inconclusive: 23.1 µM [cytotoxic, single point]",
COc1ccc(C2CC(c3cccs3)=NN2C(=O)CSc2nc3ccccc3o2)cc1 (stereo unspecified),"inconclusive: 25.9 µM [cytotoxic, single point]",
O=C(Nc1cccc(Cl)c1)c1ccc(F)c(S(=O)(=O)NCc2cccs2)c1,"inconclusive: 23.1 µM [cytotoxic, single point]",
Cc1nc(NS(=O)(=O)c2ccc(Cl)s2)c2c3c(sc2n1)CCCC3,"inconclusive: 23.1 µM [cytotoxic, partial curve]",
CC(C)CN(C(=O)c1ccco1)C1CCS(=O)(=O)C1 (stereo unspecified),,inactive: 0%
O=C(Nc1cccnc1)c1cccc([N+](=O)[O-])c1,"inconclusive: 25.9 µM [rising, single point]",
CCOc1ccc(Br)cc1S(=O)(=O)Nc1ccccc1N1CCOCC1,"inconclusive: 18.4 µM [cytotoxic, single point]",
O=C(CSc1c2c(nc3ccc(Cl)cc13)CCCC2)NCCCN1CCOCC1,,inactive: 0.0288%
O=C(CCl)Nc1ccccc1Sc1ccc(Cl)cc1,"inconclusive: 22.4 µM [cytotoxic, single point]",
CCCCCCSc1ccc([C@H]2N[C@@](C)(C(=O)OC)[C@H]3C(=O)N(CC)C(=O)[C@@H]23)cc1,"inconclusive: 20.6 µM [cytotoxic, single point]",
CCC(=O)Nc1nc2ccccc2n1Cc1ccccc1C,"inconclusive: 20.6 µM [cytotoxic, single point]",
Cc1ccc(N2CCN(C(=O)c3c(C)oc4ncn(CC(C)C)c(=O)c34)CC2)c(C)c1,,inactive: 1.67%
O=C(CCCCCBr)N1CCC(CC2CC(c3cccc(Br)c3)=NO2)(C(=O)NCC2CCCCC2)CC1 (stereo unspecified),"inconclusive: 16.4 µM [cytotoxic, single point]",
O=C(/C=C/c1cccc(O)c1)c1ccc(N2CCOCC2)cc1,"inconclusive: 10.3 µM [cytotoxic, partial curve]",
CCOc1ccc(C(=O)CCN2CCCCCC2)cc1,"inconclusive: 18.4 µM [cytotoxic, single point]",
Cc1ccc(-c2cc(C(=O)Nc3cc(C)on3)no2)cc1,,inactive: -6.58%
Clc1cccc(C[n+]2cc(-c3ccccc3)n3c2CCC3)c1,active: 9.2 µM,
Cc1cc(-c2ccc(C)c(S(=O)(=O)N3CCN(c4cccc(C(F)(F)F)c4)CC3)c2)on1,"inconclusive: 2.06 µM [rising, partial curve]",
COc1ccc(Cn2c(-c3ccc(Cl)cc3)c[n+]3ccccc23)cc1,active: 3.66 µM,
COc1cc(OC)c(/C=C/c2ccncn2)c(OC)c1,"inconclusive: 29.1 µM [rising, single point]",

# In the list so far, 2 have bromine.
SMILES,Potency,"activity change, negative = cytotoxic"
CCOc1ccc(Br)cc1S(=O)(=O)Nc1ccccc1N1CCOCC1,"inconclusive: 18.4 µM [cytotoxic, single point]",
O=C(CCCCCBr)N1CCC(CC2CC(c3cccc(Br)c3)=NO2)(C(=O)NCC2CCCCC2)CC1 (stereo unspecified),"inconclusive: 16.4 µM [cytotoxic, single point]",

# Additional records.

SMILES,Potency,"activity change, negative = cytotoxic"
COc1ccc(-n2nc3c(c2NC(=O)c2cc4ccccc4o2)CS(=O)(=O)C3)cc1,"inconclusive: 10.3 µM [rising, partial curve]",
CCc1ccccc1NNC(=O)c1snnc1C,,inactive: 17.1%
CC(C)Oc1ccc(C(=O)N(Cc2ccco2)c2ccccn2)cc1,,inactive: -2.11%
CC(=O)Nc1ccc(NC(=O)C(C)OC(=O)CC23CC4CC(CC(Br)(C4)C2)C3)cc1 (stereo unspecified),"inconclusive: 29.1 µM [rising, single point]",
CN(Cc1nc(Cc2ccccc2F)no1)CC1(N2CCOCC2)CCCCC1,,inactive: -0.115%
CC(C)CC(N)c1csc(Nc2ccc(C(F)(F)F)cn2)n1 (stereo unspecified),"inconclusive: 29.1 µM [cytotoxic, single point]",
CCOC(=O)N1CCN(c2ccc(N3C(=O)CCCC3=O)cc2[N+](=O)[O-])CC1,,inactive: 0.264%
CC1(C(=O)NS(=O)(=O)c2ccc(C#N)cc2)CCN1C(=O)CC1CCCCC1 (stereo unspecified),"inconclusive: 25.9 µM [rising, single point]",
O=C(N/N=C/c1ccccc1Cl)c1cccc(F)c1,,inactive: -0.637%
O=C(Nc1nc2ccc(S(=O)(=O)N3CCCC3)cc2s1)C1CCCCC1,active: 2.59 µM,
Cc1ccc(C)c(NC(=O)CN2C(=O)C(C)(C)c3ccccc32)c1,"inconclusive: 20.6 µM [cytotoxic, single point]",
CC(C)N(C(=O)CSc1nnc(CSc2ncccn2)n1C)C(C)C,"inconclusive: 20.6 µM [cytotoxic, partial curve, poor fit]",
CC(=O)OCC(OC(C)=O)C(OC(C)=O)C(OC(C)=O)C(=O)Nc1cccc(C)c1 (stereo unspecified),"inconclusive: 18.4 µM [rising, single point]",
CCN(CC(=O)Nc1ccc(S(=O)(=O)N2CCCC2)cc1)CC(=O)Nc1ccccc1C(F)(F)F,"inconclusive: 20.6 µM [cytotoxic, single point]",
COc1ccc(/C=C(\C#N)C(=O)Nc2cc(C)c(Cl)cc2OC)cc1O,active: 20.6 µM,
CCn1ncc(/C=N\NC(=O)c2csc3ccccc23)c1C,active: 6.51 µM,
Fc1ccc(Nc2c3c(nc4ccccc24)CCC3)cc1,"inconclusive: 29.1 µM [cytotoxic, single point]",
COc1ccc(CC(=O)Nc2cccc(S(=O)(=O)N3CCCCCC3)c2)cc1OC,active: 2.91 µM,
CCOc1ccc(NC(=O)C(Cc2ccccc2)N2C(=O)c3cccc4cccc(c34)C2=O)cc1 (stereo unspecified),"inconclusive: 29.1 µM [cytotoxic, single point]",
COc1cc(C)ccc1NC(=O)Cc1csc(NC(=O)Nc2ccccc2OC)n1,"inconclusive: 29.1 µM [cytotoxic, single point]",
CCS(=O)(=O)N1Cc2ccccc2CC1C(=O)Nc1nc2ccc(F)cc2s1 (stereo unspecified),"inconclusive: 29.1 µM [cytotoxic, single point]",
C/C(=N\NC(=O)c1cccnc1)c1ccc(C)c([N+](=O)[O-])c1,,inconclusive: 0.708%
O=C(CC12CC3CC(CC(C3)C1)C2)NC(=S)NCc1ccco1,"inconclusive: 23.1 µM [cytotoxic, single point]",
CCOC(=O)c1ccc(Nc2nc(N3CCOCC3)nc(N3CCOCC3)n2)cc1,,inactive: 9.25%

SMILES,Potency,"activity change, negative = cytotoxic"
COc1ccccc1NC(=S)NC(NC(=O)CC(C)C)C(Cl)(Cl)Cl (stereo unspecified),,inactive: 8.59%
Cc1cc(C)n(CCc2nc(-c3ccc(-c4ccccc4)cc3)cs2)n1,"inconclusive: 29.1 µM [cytotoxic, single point]",
CC(=O)Nc1ccc2nc(NC(=O)COc3ccccc3C)sc2c1,"inconclusive: 0.082 µM [cytotoxic, full curve]",
O=C(NNS(=O)(=O)c1ccc(Br)cc1)c1csnn1,"inconclusive: 13 µM [rising, partial curve, poor fit]",
COc1ccc(CCNc2nc(-c3sc(C)nc3C)cs2)cc1OC,"inconclusive: 10.3 µM [cytotoxic, partial curve]",
COc1ccc(OC)c(NC(=O)Nc2nnc(N3CCCCC3C)s2)c1 (stereo unspecified),"inconclusive: 6.51 µM [cytotoxic, partial curve, poor fit]",
COc1ccccc1-c1nc(S(=O)(=O)c2ccc(Cl)cc2)c(N(C)C)o1,,inactive: 10.6%
CCOc1ccc2nc(N3CCC(C(=O)N4CCN(c5ncccn5)CC4)CC3)sc2c1,"inconclusive: 23.1 µM [cytotoxic, single point]",
CC(C(=O)NC1C=CS(=O)(=O)C1)N1C(=O)/C(=C/c2cccc(Cl)c2)SC1=S (stereo unspecified),,inactive: -16.7%
CSc1nsc(SCC(=O)Nc2ccccc2C(N)=O)n1,,inactive: -2.29%
Nc1c(C(=O)CSc2nnc(COc3ccc(Cl)cc3)o2)c(=O)[nH]c(=O)n1C1CC1,,inactive: -1.13%
COc1ccc(N2CCN(C(=O)c3ccc(CS(=O)Cc4ccc(Cl)cc4)o3)CC2)cc1 (stereo unspecified),,inactive: -4.2%
Nc1ccc(C(=O)N/N=C/c2cn(Cc3ccccc3F)c3ccccc23)cc1,"inconclusive: 18.4 µM [cytotoxic, single point]",
CC1=CC(C)(C)N2C(=O)C(=O)c3cc(OC(=O)c4ccco4)cc1c32,"inconclusive: 23.1 µM [cytotoxic, single point]",
Cc1cnc([N+](=O)[O-])n1CCOC(=O)c1cccc(F)c1,"inconclusive: 29.1 µM [cytotoxic, single point]",
CCN(CC)c1ncnc2c1ncn2[C@H]1CN(Cc2ccc(-c3ccccc3)cc2)C[C@@H](CO)O1,,inconclusive: -3.78%
O=C1C(=O)c2c(C(=O)c3ccccc3)coc2-c2ccccc21,"inconclusive: 29.1 µM [cytotoxic, single point]",
COc1cccc(/C=C/c2ccc3ccccc3[n+]2C)c1OC,inconclusive: 0.0007 µM [cytotoxic],
Cc1ccc(C)c(NC(=S)NNc2ccc(F)cc2F)c1,,inactive: -3.69%
Cc1ccc(/C=N/NC(=O)c2cc(C3CC3)nc3ccccc23)o1,"inconclusive: 18.4 µM [cytotoxic, single point]",
Cc1ccc2nc(N3CCC(C(=O)N4CCN(c5cccc(Cl)c5)CC4)CC3)[nH]c2c1,"inconclusive: 18.4 µM [cytotoxic, single point]",
OC[C@H]1O[C@@H](n2cnc3c(NCc4ccco4)ncnc32)[C@H](O)[C@@H]1O,active: 16.4 µM,
O=C(CC(c1ccccc1)c1ccccc1)Nc1ccc(Cl)cn1,"inconclusive: 5.8 µM [cytotoxic, full curve]",

# From PubChem BioAssay AID1347075 (National Center for Advancing Translational Sciences (NCATS), 2019)
